Results are given in words; binding and its absence hold for the method and conditions named. Binding seen in cells or lysates may run through a third protein. Some entries that bind do so weakly or less than the wild type. For some assays here: Sequences can lack the tags named with a protein.
T1: GFP-TRIM24 fusion protein (tripartite motif-containing 24) (not stated (human or mouse cDNA cloned)) (UniProt O15164)
T1 sequence: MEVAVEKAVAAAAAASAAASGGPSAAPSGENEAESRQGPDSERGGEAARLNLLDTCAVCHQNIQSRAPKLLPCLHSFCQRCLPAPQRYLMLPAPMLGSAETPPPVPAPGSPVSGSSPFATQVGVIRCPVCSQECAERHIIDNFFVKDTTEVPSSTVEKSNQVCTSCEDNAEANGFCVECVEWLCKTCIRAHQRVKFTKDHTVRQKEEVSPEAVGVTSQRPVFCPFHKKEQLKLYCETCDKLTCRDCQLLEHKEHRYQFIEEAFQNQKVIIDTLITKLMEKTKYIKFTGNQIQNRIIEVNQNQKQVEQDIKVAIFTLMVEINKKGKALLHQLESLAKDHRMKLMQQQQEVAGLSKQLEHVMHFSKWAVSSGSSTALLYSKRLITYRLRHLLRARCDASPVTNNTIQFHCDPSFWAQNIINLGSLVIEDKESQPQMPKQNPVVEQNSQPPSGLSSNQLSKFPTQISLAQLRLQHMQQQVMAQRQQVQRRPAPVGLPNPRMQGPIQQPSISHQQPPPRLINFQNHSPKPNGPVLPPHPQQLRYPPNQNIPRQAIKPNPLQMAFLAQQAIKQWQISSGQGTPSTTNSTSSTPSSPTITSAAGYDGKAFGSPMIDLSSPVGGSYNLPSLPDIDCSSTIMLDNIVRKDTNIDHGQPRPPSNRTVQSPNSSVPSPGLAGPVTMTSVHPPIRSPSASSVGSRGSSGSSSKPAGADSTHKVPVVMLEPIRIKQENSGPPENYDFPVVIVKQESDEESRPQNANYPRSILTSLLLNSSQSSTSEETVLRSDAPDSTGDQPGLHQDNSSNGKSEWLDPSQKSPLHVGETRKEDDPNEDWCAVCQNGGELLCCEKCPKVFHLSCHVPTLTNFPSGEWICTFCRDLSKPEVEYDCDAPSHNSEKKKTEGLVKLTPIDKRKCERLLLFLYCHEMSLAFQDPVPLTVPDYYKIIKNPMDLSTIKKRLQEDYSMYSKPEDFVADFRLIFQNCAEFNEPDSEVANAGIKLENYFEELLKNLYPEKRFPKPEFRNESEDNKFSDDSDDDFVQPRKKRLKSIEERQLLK

Amino acid sequences for entries named in this document (tags omitted).
UniProt Q8NDV7: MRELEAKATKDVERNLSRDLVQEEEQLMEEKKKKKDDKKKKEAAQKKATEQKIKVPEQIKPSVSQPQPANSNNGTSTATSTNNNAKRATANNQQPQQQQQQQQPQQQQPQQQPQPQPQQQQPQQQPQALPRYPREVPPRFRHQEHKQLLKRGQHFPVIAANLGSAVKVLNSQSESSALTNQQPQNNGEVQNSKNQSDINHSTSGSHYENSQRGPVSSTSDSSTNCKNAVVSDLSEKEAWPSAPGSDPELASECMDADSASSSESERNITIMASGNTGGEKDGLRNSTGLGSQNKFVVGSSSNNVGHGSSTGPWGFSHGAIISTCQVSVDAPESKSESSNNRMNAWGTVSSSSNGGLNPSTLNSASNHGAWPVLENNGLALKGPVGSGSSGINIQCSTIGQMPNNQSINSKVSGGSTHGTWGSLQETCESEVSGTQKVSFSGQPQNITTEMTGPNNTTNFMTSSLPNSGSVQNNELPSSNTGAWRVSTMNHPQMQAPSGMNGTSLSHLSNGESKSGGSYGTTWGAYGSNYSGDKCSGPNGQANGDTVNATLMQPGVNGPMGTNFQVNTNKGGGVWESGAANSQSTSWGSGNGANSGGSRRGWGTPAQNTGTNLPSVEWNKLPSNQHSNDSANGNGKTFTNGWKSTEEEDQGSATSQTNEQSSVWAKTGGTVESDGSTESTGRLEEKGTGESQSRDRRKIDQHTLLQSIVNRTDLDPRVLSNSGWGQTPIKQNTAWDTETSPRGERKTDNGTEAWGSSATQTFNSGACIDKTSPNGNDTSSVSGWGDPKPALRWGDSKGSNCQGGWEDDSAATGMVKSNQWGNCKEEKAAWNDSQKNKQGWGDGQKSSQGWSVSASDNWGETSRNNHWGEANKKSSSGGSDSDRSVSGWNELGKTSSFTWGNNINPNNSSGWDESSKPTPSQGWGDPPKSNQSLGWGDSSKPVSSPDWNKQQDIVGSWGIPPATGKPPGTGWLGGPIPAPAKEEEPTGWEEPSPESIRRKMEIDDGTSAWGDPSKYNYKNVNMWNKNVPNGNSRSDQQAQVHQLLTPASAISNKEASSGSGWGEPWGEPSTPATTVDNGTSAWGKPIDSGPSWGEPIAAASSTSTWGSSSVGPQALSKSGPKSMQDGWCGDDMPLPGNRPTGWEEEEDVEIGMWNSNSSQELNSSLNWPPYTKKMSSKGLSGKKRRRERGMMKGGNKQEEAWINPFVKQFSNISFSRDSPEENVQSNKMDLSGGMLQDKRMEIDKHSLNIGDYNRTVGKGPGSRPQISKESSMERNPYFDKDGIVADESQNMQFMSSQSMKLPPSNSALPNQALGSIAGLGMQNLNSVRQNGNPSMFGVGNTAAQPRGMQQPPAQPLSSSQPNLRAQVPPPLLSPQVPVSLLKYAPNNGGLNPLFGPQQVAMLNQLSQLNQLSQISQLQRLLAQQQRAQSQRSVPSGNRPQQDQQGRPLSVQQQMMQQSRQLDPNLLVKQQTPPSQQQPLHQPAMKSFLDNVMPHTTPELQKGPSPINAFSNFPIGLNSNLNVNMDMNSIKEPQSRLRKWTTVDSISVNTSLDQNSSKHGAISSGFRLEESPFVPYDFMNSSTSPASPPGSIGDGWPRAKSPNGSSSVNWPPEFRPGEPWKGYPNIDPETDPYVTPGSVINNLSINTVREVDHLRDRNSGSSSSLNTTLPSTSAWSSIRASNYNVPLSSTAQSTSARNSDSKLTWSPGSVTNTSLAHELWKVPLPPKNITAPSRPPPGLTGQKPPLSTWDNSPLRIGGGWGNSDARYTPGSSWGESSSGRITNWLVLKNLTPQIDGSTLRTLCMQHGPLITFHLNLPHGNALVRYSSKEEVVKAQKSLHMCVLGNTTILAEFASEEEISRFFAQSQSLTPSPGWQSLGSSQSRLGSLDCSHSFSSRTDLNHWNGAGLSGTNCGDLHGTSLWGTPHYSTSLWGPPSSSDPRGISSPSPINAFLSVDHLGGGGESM

T2: TRIM24, endogenous in mouse liver / primary hepatocytes (mouse (endogenous in primary hepatocytes)) (UniProt Q64127)
T2 sequence: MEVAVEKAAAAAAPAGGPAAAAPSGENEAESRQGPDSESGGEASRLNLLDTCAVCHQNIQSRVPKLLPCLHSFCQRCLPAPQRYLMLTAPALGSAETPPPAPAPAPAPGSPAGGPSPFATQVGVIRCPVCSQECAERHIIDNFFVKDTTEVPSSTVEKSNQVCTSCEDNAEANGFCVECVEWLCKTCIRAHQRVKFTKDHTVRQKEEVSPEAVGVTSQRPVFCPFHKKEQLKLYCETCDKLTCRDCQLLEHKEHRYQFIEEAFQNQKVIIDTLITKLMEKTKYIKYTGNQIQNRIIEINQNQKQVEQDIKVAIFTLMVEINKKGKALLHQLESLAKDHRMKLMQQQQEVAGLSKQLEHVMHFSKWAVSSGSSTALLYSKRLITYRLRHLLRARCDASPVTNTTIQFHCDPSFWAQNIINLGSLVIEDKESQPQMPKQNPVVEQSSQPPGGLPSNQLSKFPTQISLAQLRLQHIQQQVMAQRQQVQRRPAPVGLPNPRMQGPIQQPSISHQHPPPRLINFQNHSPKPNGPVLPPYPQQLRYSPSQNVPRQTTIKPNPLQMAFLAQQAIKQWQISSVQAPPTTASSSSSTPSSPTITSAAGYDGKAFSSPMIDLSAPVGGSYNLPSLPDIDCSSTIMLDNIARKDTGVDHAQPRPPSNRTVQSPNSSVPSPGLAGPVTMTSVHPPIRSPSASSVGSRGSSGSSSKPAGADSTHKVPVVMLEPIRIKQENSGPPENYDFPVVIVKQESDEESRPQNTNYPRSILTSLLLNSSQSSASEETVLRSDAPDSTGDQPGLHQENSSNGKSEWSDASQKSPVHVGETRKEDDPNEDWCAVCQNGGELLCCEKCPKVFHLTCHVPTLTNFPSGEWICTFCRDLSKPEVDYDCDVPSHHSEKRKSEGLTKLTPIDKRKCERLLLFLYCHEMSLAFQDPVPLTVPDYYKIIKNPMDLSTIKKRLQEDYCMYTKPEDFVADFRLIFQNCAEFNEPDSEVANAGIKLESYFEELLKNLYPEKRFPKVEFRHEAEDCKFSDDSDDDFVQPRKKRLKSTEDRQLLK


Key:
[1] = target: T1, GFP-TRIM24 fusion protein (tripartite motif-containing 24) (not stated (human or mouse cDNA cloned)); assay: co-IP; Flag- or Myc-tagged protein co-expressed with GFP-TRIM24 in HEK293 cells; immunoprecipitation with the GFP antibody (control IgG or no GFP-TRIM24), immunoblotting
[2] = target: T1, GFP-TRIM24 fusion protein (tripartite motif-containing 24) (not stated (human or mouse cDNA cloned)); assay: co-IP; GFP-TRIM24 expressed in HEK293 cells, immunoprecipitated with the GFP antibody; endogenous P-body components detected by immunoblotting
[3] = target: T2, TRIM24, endogenous in mouse liver / primary hepatocytes (mouse (endogenous in primary hepatocytes)); assay: co-IP; endogenous TRIM24 immunoprecipitated with the TRIM24 antibody from lysates of mouse primary hepatocytes (text: liver lysates); endogenous P-body components detected by immunoblotting

| Molecule | binding [1] | binding [2] | other results |
| --- | --- | --- | --- |
| Myc-AGO1 (from UniProt Q9UL18 1-857) | binds |  |  |
| Flag-AGO2 (from UniProt Q9UKV8-1 1-859) | binds |  |  |
| GW182 protein, endogenous in HEK293 cells (from UniProt Q8NDV7 1-1962) |  | binds |  |
| EDC4 (enhancer of decapping protein 4), endogenous in HEK293 cells (protein, UniProt Q6P2E9-1 1-1401) MASCASIDIEDATQHLRDILKLDRPAGGPSAESPRPSSAYNGDLNGLLVPDPLCSGDSTSANKTGLRTMPPINLQEKQVICLSGDDSSTCIGILAKEVEIVASSDSSISSKARGSNKVKIQPVAKYDWEQKYYYGNLIAVSNSFLAYAIRAANNGSAMVRVISVSTSERTLLKGFTGSVADLAFAHLNSPQLACLDEAGNLFVWRLALVNGKIQEEILVHIRQPEGTPLNHFRRIIWCPFIPEESEDCCEESSPTVALLHEDRAEVWDLDMLRSSHSTWPVDVSQIKQGFIVVKGHSTCLSEGALSPDGTVLATASHDGYVKFWQIYIEGQDEPRCLHEWKPHDGRPLSCLLFCDNHKKQDPDVPFWRFLITGADQNRELKMWCTVSWTCLQTIRFSPDIFSSVSVPPSLKVCLDLSAEYLILSDVQRKVLYVMELLQNQEEGHACFSSISEFLLTHPVLSFGIQVVSRCRLRHTEVLPAEEENDSLGADGTHGAGAMESAAGVLIKLFCVHTKALQDVQIRFQPQLNPDVVAPLPTHTAHEDFTFGESRPELGSEGLGSAAHGSQPDLRRIVELPAPADFLSLSSETKPKLMTPDAFMTPSASLQQITASPSSSSSGSSSSSSSSSSSLTAVSAMSSTSAVDPSLTRPPEELTLSPKLQLDGSLTMSSSGSLQASPRGLLPGLLPAPADKLTPKGPGQVPTATSALSLELQEVEPLGLPQASPSRTRSPDVISSASTALSQDIPEIASEALSRGFGSSAPEGLEPDSMASAASALHLLSPRPRPGPELGPQLGLDGGPGDGDRHNTPSLLEAALTQEASTPDSQVWPTAPDITRETCSTLAESPRNGLQEKHKSLAFHRPPYHLLQQRDSQDASAEQSDHDDEVASLASASGGFGTKVPAPRLPAKDWKTKGSPRTSPKLKRKSKKDDGDAAMGSRLTEHQVAEPPEDWPALIWQQQRELAELRHSQEELLQRLCTQLEGLQSTVTGHVERALETRHEQEQRRLERALAEGQQRGGQLQEQLTQQLSQALSSAVAGRLERSIRDEIKKTVPPCVSRSLEPMAGQLSNSVATKLTAVEGSMKENISKLLKSKNLTDAIARAAADTLQGPMQAAYREAFQSVVLPAFEKSCQAMFQQINDSFRLGTQEYLQQLESHMKSRKAREQEAREPVLAQLRGLVSTLQSATEQMAATVAGSVRAEVQHQLHVAVGSLQESILAQVQRIVKGEVSVALKEQQAAVTSSIMQAMRSAAGTPVPSAHLDCQAQQAHILQLLQQGHLNQAFQQALTAADLNLVLYVCETVDPAQVFGQPPCPLSQPVLLSLIQQLASDLGTRTDLKLSYLEEAVMHLDHSDPITRDHMGSVMAQVRQKLFQFLQAEPHNSLGKAARRLSLMLHGLVTPSLP |  | binds |  |
| LSM1, endogenous in mouse liver / primary hepatocytes (protein, UniProt Q8VC85 1-133) MNYMPGTASLIEDIDKKHLVLLRDGRTLIGFLRSIDQFANLVLHQTVERIHVGKKYGDIPRGIFVVRGENVVLLGEIDLEKESDTPLQQVSIEEILEEQRVQQQTRLEAEKLKVQTLKDRGLSIPRADTLDEY |  |  | binding [3]: binds |
| Flag-EDC4 (protein, UniProt Q6P2E9-1 1-1401) MASCASIDIEDATQHLRDILKLDRPAGGPSAESPRPSSAYNGDLNGLLVPDPLCSGDSTSANKTGLRTMPPINLQEKQVICLSGDDSSTCIGILAKEVEIVASSDSSISSKARGSNKVKIQPVAKYDWEQKYYYGNLIAVSNSFLAYAIRAANNGSAMVRVISVSTSERTLLKGFTGSVADLAFAHLNSPQLACLDEAGNLFVWRLALVNGKIQEEILVHIRQPEGTPLNHFRRIIWCPFIPEESEDCCEESSPTVALLHEDRAEVWDLDMLRSSHSTWPVDVSQIKQGFIVVKGHSTCLSEGALSPDGTVLATASHDGYVKFWQIYIEGQDEPRCLHEWKPHDGRPLSCLLFCDNHKKQDPDVPFWRFLITGADQNRELKMWCTVSWTCLQTIRFSPDIFSSVSVPPSLKVCLDLSAEYLILSDVQRKVLYVMELLQNQEEGHACFSSISEFLLTHPVLSFGIQVVSRCRLRHTEVLPAEEENDSLGADGTHGAGAMESAAGVLIKLFCVHTKALQDVQIRFQPQLNPDVVAPLPTHTAHEDFTFGESRPELGSEGLGSAAHGSQPDLRRIVELPAPADFLSLSSETKPKLMTPDAFMTPSASLQQITASPSSSSSGSSSSSSSSSSSLTAVSAMSSTSAVDPSLTRPPEELTLSPKLQLDGSLTMSSSGSLQASPRGLLPGLLPAPADKLTPKGPGQVPTATSALSLELQEVEPLGLPQASPSRTRSPDVISSASTALSQDIPEIASEALSRGFGSSAPEGLEPDSMASAASALHLLSPRPRPGPELGPQLGLDGGPGDGDRHNTPSLLEAALTQEASTPDSQVWPTAPDITRETCSTLAESPRNGLQEKHKSLAFHRPPYHLLQQRDSQDASAEQSDHDDEVASLASASGGFGTKVPAPRLPAKDWKTKGSPRTSPKLKRKSKKDDGDAAMGSRLTEHQVAEPPEDWPALIWQQQRELAELRHSQEELLQRLCTQLEGLQSTVTGHVERALETRHEQEQRRLERALAEGQQRGGQLQEQLTQQLSQALSSAVAGRLERSIRDEIKKTVPPCVSRSLEPMAGQLSNSVATKLTAVEGSMKENISKLLKSKNLTDAIARAAADTLQGPMQAAYREAFQSVVLPAFEKSCQAMFQQINDSFRLGTQEYLQQLESHMKSRKAREQEAREPVLAQLRGLVSTLQSATEQMAATVAGSVRAEVQHQLHVAVGSLQESILAQVQRIVKGEVSVALKEQQAAVTSSIMQAMRSAAGTPVPSAHLDCQAQQAHILQLLQQGHLNQAFQQALTAADLNLVLYVCETVDPAQVFGQPPCPLSQPVLLSLIQQLASDLGTRTDLKLSYLEEAVMHLDHSDPITRDHMGSVMAQVRQKLFQFLQAEPHNSLGKAARRLSLMLHGLVTPSLP | binds |  |  |
| Flag-EDC4^M1-H538 fragment (contains the WD40 domain) (domain or fragment, UniProt Q6P2E9-1 1-538) MASCASIDIEDATQHLRDILKLDRPAGGPSAESPRPSSAYNGDLNGLLVPDPLCSGDSTSANKTGLRTMPPINLQEKQVICLSGDDSSTCIGILAKEVEIVASSDSSISSKARGSNKVKIQPVAKYDWEQKYYYGNLIAVSNSFLAYAIRAANNGSAMVRVISVSTSERTLLKGFTGSVADLAFAHLNSPQLACLDEAGNLFVWRLALVNGKIQEEILVHIRQPEGTPLNHFRRIIWCPFIPEESEDCCEESSPTVALLHEDRAEVWDLDMLRSSHSTWPVDVSQIKQGFIVVKGHSTCLSEGALSPDGTVLATASHDGYVKFWQIYIEGQDEPRCLHEWKPHDGRPLSCLLFCDNHKKQDPDVPFWRFLITGADQNRELKMWCTVSWTCLQTIRFSPDIFSSVSVPPSLKVCLDLSAEYLILSDVQRKVLYVMELLQNQEEGHACFSSISEFLLTHPVLSFGIQVVSRCRLRHTEVLPAEEENDSLGADGTHGAGAMESAAGVLIKLFCVHTKALQDVQIRFQPQLNPDVVAPLPTH | binds |  |  |
| LSM1, endogenous in HEK293 cells (protein, UniProt O15116 1-133) MNYMPGTASLIEDIDKKHLVLLRDGRTLIGFLRSIDQFANLVLHQTVERIHVGKKYGDIPRGIFVVRGENVVLLGEIDLEKESDTPLQQVSIEEILEEQRVEQQTKLEAEKLKVQALKDRGLSIPRADTLDEY |  | binds |  |

From PMC9270398
